# PubChem BioAssay (NCATS)
# The chains behind the UniProt entries cited, without tags or fusion partners. Where a name states a change or a piece, a line headed by the entry shows the natural chain unless it says otherwise.
# UniProt P03372, whole entry, looked up: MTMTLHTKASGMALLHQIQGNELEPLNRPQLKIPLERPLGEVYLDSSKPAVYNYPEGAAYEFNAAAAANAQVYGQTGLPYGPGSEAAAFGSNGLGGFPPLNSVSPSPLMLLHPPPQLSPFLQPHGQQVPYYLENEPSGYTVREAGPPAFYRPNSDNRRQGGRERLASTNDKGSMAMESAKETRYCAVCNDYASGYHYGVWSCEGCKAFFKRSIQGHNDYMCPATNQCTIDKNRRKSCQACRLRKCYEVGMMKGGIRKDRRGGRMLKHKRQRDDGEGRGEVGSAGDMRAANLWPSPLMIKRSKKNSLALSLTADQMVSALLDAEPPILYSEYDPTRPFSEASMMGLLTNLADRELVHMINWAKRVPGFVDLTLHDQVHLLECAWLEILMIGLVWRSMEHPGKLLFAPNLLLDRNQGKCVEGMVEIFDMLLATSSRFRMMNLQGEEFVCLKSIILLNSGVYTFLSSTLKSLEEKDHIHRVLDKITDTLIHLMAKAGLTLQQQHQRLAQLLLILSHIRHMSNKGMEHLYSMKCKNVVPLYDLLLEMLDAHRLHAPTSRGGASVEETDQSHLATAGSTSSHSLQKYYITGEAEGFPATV
# UniProt P19793: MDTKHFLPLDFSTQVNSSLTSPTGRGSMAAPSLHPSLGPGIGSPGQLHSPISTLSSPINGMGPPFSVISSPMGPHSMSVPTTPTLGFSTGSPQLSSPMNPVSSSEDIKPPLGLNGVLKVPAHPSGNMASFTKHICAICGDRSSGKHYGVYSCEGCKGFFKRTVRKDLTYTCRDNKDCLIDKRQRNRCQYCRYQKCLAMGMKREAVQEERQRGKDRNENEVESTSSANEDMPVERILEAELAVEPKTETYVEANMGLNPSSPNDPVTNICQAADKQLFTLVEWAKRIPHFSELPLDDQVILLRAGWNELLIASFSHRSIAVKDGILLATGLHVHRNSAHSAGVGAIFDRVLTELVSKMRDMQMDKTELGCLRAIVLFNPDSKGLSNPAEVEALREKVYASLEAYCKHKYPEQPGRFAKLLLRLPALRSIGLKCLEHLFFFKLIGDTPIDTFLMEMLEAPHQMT
# UniProt P10275: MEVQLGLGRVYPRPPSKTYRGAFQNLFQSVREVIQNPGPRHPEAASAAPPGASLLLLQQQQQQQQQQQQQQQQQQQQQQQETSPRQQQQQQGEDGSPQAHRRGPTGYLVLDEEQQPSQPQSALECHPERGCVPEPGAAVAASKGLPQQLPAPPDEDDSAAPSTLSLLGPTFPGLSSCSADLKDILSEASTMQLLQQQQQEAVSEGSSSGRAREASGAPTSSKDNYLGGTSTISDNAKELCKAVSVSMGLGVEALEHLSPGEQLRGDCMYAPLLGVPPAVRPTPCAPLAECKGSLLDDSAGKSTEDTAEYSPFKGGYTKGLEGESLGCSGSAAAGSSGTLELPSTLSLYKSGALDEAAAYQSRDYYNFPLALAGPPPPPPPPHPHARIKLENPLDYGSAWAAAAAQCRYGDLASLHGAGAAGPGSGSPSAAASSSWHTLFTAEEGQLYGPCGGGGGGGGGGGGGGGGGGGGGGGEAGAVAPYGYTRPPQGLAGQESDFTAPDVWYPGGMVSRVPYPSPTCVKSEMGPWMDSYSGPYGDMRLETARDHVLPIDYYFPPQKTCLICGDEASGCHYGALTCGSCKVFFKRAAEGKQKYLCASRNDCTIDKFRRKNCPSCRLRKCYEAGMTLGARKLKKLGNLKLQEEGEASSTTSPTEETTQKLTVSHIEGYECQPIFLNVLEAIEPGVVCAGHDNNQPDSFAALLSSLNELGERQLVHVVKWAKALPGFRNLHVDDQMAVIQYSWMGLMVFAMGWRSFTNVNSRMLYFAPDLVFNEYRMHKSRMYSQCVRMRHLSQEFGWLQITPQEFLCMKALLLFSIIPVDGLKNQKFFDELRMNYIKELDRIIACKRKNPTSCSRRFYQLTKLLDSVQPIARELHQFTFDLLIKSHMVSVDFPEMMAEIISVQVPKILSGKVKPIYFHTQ
# UniProt Q96RI1: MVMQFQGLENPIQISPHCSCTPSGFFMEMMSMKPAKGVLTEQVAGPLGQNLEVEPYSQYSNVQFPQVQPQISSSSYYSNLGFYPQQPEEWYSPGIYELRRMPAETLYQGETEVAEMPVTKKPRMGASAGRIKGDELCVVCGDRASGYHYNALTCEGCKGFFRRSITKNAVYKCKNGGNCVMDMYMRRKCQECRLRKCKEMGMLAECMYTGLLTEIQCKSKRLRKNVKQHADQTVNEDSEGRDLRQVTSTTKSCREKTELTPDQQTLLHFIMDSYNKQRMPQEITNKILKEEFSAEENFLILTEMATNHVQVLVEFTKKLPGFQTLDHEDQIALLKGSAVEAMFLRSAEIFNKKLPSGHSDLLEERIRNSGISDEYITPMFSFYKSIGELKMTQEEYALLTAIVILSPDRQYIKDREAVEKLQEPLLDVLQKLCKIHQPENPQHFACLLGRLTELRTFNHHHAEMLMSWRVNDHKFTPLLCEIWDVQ
# UniProt P01375, whole entry, looked up: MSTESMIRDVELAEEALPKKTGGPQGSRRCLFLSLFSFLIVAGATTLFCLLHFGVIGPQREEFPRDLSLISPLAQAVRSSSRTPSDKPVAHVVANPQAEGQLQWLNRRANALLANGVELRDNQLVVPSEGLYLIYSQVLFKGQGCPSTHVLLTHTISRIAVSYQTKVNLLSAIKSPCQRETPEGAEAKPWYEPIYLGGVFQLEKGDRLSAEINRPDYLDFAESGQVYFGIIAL
# UniProt P10828: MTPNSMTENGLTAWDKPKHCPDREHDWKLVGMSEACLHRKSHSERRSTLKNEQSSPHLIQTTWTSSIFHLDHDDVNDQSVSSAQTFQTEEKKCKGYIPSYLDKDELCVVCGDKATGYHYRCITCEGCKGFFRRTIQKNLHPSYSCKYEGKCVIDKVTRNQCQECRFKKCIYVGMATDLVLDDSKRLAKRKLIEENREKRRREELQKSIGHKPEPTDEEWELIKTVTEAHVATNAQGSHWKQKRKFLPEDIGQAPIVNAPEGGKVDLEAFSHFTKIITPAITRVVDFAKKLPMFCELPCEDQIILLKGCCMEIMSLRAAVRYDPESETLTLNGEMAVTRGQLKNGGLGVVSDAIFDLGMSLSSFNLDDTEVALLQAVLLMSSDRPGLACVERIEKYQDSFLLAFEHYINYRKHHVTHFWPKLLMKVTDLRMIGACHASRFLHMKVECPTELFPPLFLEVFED
# UniProt P11473: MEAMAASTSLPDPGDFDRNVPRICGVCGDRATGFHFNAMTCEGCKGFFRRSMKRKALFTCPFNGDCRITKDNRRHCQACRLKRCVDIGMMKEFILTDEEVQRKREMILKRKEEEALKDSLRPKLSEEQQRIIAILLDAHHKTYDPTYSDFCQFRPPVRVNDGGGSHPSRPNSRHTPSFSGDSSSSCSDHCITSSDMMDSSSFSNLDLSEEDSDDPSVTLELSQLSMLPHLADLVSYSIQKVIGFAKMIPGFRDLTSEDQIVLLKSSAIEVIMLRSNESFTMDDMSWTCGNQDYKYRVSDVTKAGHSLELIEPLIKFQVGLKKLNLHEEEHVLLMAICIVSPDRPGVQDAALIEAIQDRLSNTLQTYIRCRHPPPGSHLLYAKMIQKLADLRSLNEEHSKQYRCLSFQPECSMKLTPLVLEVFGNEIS
# This list was built around the results that the source calls inconclusive (neither active nor inactive); the mix of calls is not that of the screen. For some assays here: Where the call is inconclusive, the potency comes from a doubtful curve fit. For some assays here: “Side channel” marks fits to a control or component signal instead of the main read-out. The source made the active and inactive calls. Unless noted, calls come from the whole dose curve.
# Legend:
# [1] = MultiTox-Fluor Cytotoxicity Assay - LYMP1-001 - Live Cells (AID 947; active = well fitted curve in the direction sought with a large enough effect; inconclusive = small, poorly fitted or top-dose-only effect, or another doubt; inactive = no such curve, though single readings can be large; an effect the other way counts as inactive or inconclusive; note: potency is the fitted concentration of half-maximal effect)
# [2] = Cell Viability - LYMP2-004 (AID 966; active = well fitted curve in the direction sought with a large enough effect; inconclusive = small, poorly fitted or top-dose-only effect, or another doubt; inactive = no such curve, though single readings can be large; an effect the other way counts as inactive or inconclusive;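 note: potency is the fitted concentration of half-maximal effect; cells exposed to compound for 24 h; nearly all actives have a fitted effect of over 65% in size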); details: LYMP2-004 lymphoblastoid cell viability, qHTS; activity change, negative = cytotoxicity: at 92.2 µM (top of the series)
# Method in brief: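 qHTS cytotoxicity: human lymphoblastoid line, 24 hr compound treatment, 37 C, complete medium. Viability read as cellular ATP via luciferase luminescence; tetraoctylammonium bromide served as positive control.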
# [3] = molecular target: Estrogen receptor (Homo sapiens) (UniProt P03372); experiment: qHTS assay for small molecule agonists of estrogen receptor alpha signaling (AID 588514); details: ER-alpha-UAS-bla HEK293, beta-lactamase ratio, 18 h; activation: at 76.8 µM (top of the series), percent of full estradiol response, vehicle zero unless noted;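 note: 0% = vehicle only and 100% = reference agonist; nearly all actives have a fitted effect of over 70% in size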
# Method in brief: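 Efficacy is expressed against 20 nM 17-beta-estradiol (100%) and DMSO basal (0%); EC50 from Hill equation. Assay: beta-lactamase reporter in ER-alpha-UAS-bla HEK 293 cells, 18 h compound incubation, CCF4 detection.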
# [4] = molecular target: Peroxisome proliferator-activated receptor gamma (Homo sapiens) (UniProt P37231); experiment: qHTS assay for small molecule agonists of peroxisome proliferator-activated receptor gamma signaling (AID 588536; active = well fitted curve in the direction sought with a large enough effect in the signal ratio, with a control signal flat, not every such curve was filed as active; inconclusive = small, poorly fitted or top-dose-only effect, or effect the other way, or a change in a side signal; inactive = no such curve, though single readings can be large or run the other way; the % refers to the signal ratio;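 note: 0% = DMSO basal wells and 100% = rosiglitazone at 2 µM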); details: HEK293 PPARg-UAS-bla, beta-lactamase ratio, 16 h; activation: at 76.7 µM (top of the series), percent of rosiglitazone response, DMSO as zero
# Method in brief: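 Using GeneBLAzer HEK293 cells, response was quantified by CCF4 fluorescence and normalized between basal DMSO (0%) and rosiglitazone 2 uM (100%); curves yielded half-maximal stimulation concentration and efficacy.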
# [5] = molecular target: Peroxisome proliferator-activated receptor gamma (Homo sapiens) (UniProt P37231); experiment: qHTS assay for small molecule antagonists of peroxisome proliferator-activated receptor gamma signaling (AID 588537; active = well fitted inhibition curve with a large enough effect in the signal ratio, with a control signal flat, not every such curve was filed as active; inconclusive = small, poorly fitted or top-dose-only effect, or effect the other way, or a change in a side signal; the % refers to the signal ratio;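 note: reporter cells co-stimulated with 50 nM rosiglitazone agonist during compound treatment; % of control where 0% means no effect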); details: HEK293 PPARg-UAS-bla, beta-lactamase ratio, antagonist mode; activity, negative = inhibition: at 76.8 µM (top of the series) unless noted
# Method in brief: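 Compounds are tested as concentration series for inhibition of rosiglitazone-driven (50 nM) reporter expression in GeneBLAzer PPAR-gamma-UAS-bla HEK293 cells. After 16 h at 37 C, CCF4 substrate is added for 2 h at room temperature and blue/green fluorescence is measured.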
# [6] = molecular target: Retinoic acid receptor RXR-alpha (Homo sapiens) (UniProt P19793); experiment: qHTS assay for small molecule agonists of retinoid X receptor alpha signaling (AID 588544); details: HEK293T RXRa-UAS-bla, beta-lactamase reporter, 18 h; activation: at 76.7 µM (top of the series);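 note: 0% = DMSO basal wells and 100% = reference agonist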
# [7] = qHTS assay for small molecule agonists of the antioxidant response element (ARE) signaling pathway (AID 651741; active = well fitted activation curve with a large enough effect in the signal ratio; inconclusive = small, poorly fitted or top-dose-only effect, or effect the other way, or a change in a side signal; the % refers to the signal ratio; note: % of control where 0% means no effect); details: HepG2 ARE-bla reporter, beta-lactamase FRET ratio, 16 h; activation: at 96 µM (top of the series) unless noted
# Method in brief: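 Reporter: beta-lactamase under ARE, stably in HepG2. Exposure: 16 h, 37 C, compounds delivered in DMSO by pin tool after 5 h cell preincubation. Readout: FRET substrate fluorescence after 2 h at RT.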
# [8] = qHTS assay to identify small molecules that stimulate interleukin-8 (IL-8) secretion (AID 651758; active = well fitted activation curve with a large enough effect in the signal ratio; inconclusive = small, poorly fitted or top-dose-only effect, or effect the other way, or a change in a side signal; the % refers to the signal ratio; note: 0% is about no effect); details: HTRF ratio (665/615); activation: at 92.2 µM (top of the series)
# Method in brief: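 Quantitative HTS in THP-1 monocytic cells at 2000 cells per well, with 16 hrs compound incubation at 37 C. IL-8 in the medium was then quantified by HTRF immunoassay, read after 1-3 hrs at room temperature.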
# [9] = molecular target: Androgen receptor (Homo sapiens) (UniProt P10275); experiment: qHTS assay for small molecule antagonists of androgen receptor signaling (AID 588516; active = well fitted curve in the direction sought with a large enough effect in the signal ratio, with a control signal flat, not every such curve was filed as active; inconclusive = small, poorly fitted or top-dose-only effect, or effect the other way, or a change in a side signal; inactive = no such curve, though single readings can be large or run the other way; the % refers to the signal ratio; note: % is set by controls: 0 for no effect and ±100 for the full control effect); details: AR-UAS-bla HEK293, beta-lactamase ratio, antagonist mode, 16 h; activity change, negative = inhibition: at 76.8 µM (top of the series)
# Method in brief: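 Antagonist-mode qHTS: inhibition of R1881 (10 nM)-driven beta-lactamase expression in GripTite HEK 293 cells is measured after 16 h; values are Hill-derived IC50s normalized between R1881 and DMSO wells.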
# [10] = molecular target: Bile acid receptor (Homo sapiens) (UniProt Q96RI1); experiment: qHTS assay for small molecule agonists of farnesoid X receptor signaling (AID 588527); details: HEK293T FXR-UAS-bla, beta-lactamase ratio, 16 h; activation: stronger effect = higher value;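 note: 0% = vehicle basal and 100% = reference agonist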
# Method in brief: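 Quantitative HTS used FXR-UAS-bla HEK293T cells with 16 h compound incubation at 37 C. EC50 values came from concentration-response curves normalized to chenodeoxycholic acid.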
# [11] = molecular target: Glucocorticoid receptor (Homo sapiens) (UniProt P04150); experiment: qHTS assay for small molecule agonists of glucocorticoid receptor signaling (AID 588532; active = well fitted curve in the direction sought with a large enough effect in the signal ratio, with a control signal flat; inconclusive = small, poorly fitted or top-dose-only effect, or a change in a side signal; inactive = no such curve, though single readings can be large or run the other way; the % refers to the signal ratio; note: potency is the fitted concentration of half-maximal effect); details: HeLa MMTV-bla, beta-lactamase ratio, agonist, 18 h; activation: stronger effect = higher value, percent of dexamethasone control, DMSO zero
# Method in brief: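 Titration series, up to 92 uM, applied to GRE-bla HeLa cells for 18 h at 37 C. Detection by CCF4 FRET substrate after 2 h at RT.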
# [12] = molecular target: Glucocorticoid receptor (Homo sapiens) (UniProt P04150); experiment: qHTS assay for small molecule antagonists of glucocorticoid receptor signaling (AID 588533; active = well fitted inhibition curve with a large enough effect in the signal ratio, with a control signal flat, not every such curve was filed as active; inconclusive = small, poorly fitted or top-dose-only effect, or effect the other way, or a change in a side signal; the % refers to the signal ratio;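 note: cells stimulated with 2 nM dexamethasone as agonist; % is set by controls: 0 for no effect and ±100 for the full control effect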); details: HeLa MMTV-bla, GRE beta-lactamase ratio, antagonist mode, 18 h; activity change, negative = inhibition: at 76.8 µM (top of the series)
# [13] = Cell Viability - LYMP1-003 - Assay at 40 hr (AID 964; active = well fitted curve in the direction sought with a large enough effect; inconclusive = small, poorly fitted or top-dose-only effect, or another doubt; inactive = no such curve, though single readings can be large; an effect the other way counts as inactive or inconclusive; note: % is set by controls: 0 for no effect and ±100 for the full control effect; nearly all actives have a fitted effect of over 60% in size); details: LYMP1-003 lymphoblastoid viability; at 92.2 µM (top of the series)
# Method in brief: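 Luminescent ATP signal (CellTiter-Glo) served as the viability read-out after 40 hr compound treatment of human lymphoblastoid LYMP1-003 cells at 37 C. Decreases in ATP were fitted with the Hill equation to give AC50.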
# [14] = Cell Viability - LYMP2-012 (AID 982; active = well fitted curve in the direction sought with a large enough effect; inconclusive = small, poorly fitted or top-dose-only effect, or another doubt; inactive = no such curve, though single readings can be large; an effect the other way counts as inactive or inconclusive;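 note: cellular ATP by luciferase luminescence where a drop means cytotoxicity; cells exposed to compound for one day before reading; 0% = DMSO only and full loss = 92 µM tetraoctylammonium bromide; nearly all actives have a fitted effect of over 55% in size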); details: LYMP2-012 lymphoblastoid cell viability qHTS; activity change, negative = cytotoxicity: at 92.2 µM (top of the series)
# [15] = molecular target: Tumor necrosis factor (Homo sapiens) (UniProt P01375); experiment: qHTS assay to identify small molecules that stimulate Tumor Necrosis Factor-alpha (TNF-alpha) secretion (AID 651757; active = well fitted curve in the direction sought with a large enough effect in the signal ratio; inconclusive = small, poorly fitted or top-dose-only effect, or a change in a side signal; inactive = no such curve, though single readings can be large or run the other way; the % refers to the signal ratio; note: 0% is about no effect); details: Human cells, HTRF 665/615 ratio; activation (TNF-alpha secretion): at 92.2 µM (top of the series)
# Method in brief: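 Human monocytic THP-1 cells are plated, treated with compound and held at 37 C for 17 hrs. Labeled anti-TNF-alpha antibody mixture is then added; after 3 hr at room temperature, TR-FRET signal reports secreted TNF-alpha.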
# [16] = molecular target: Bile acid receptor (Homo sapiens) (UniProt Q96RI1); experiment: qHTS assay for small molecule antagonists of farnesoid X receptor signaling (AID 588526); details: HEK293T FXR-UAS-bla, beta-lactamase ratio, antagonist mode; activity change, negative = inhibition: at 76.7 µM (top of the series); note: % is set by controls: 0 for no effect and ±100 for the full control effect
# Method in brief: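 Concentration-response titrations were fitted to the Hill equation for half-maximal inhibition and maximal response, with data normalised to 50 uM chenodeoxycholic acid and DMSO control wells. Cells: FXR-UAS-bla HEK293T, dialyzed FBS.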
# [17] = molecular target: Thyroid hormone receptor beta (Homo sapiens) (UniProt P10828); experiment: qHTS assay for small molecule antagonists of thyroid hormone receptor beta signaling (AID 588547; active = well fitted inhibition curve with a large enough effect in the signal ratio, with a control signal flat, not every such curve was filed as active; inconclusive = small, poorly fitted or top-dose-only effect, or effect the other way, or a change in a side signal; the % refers to the signal ratio; note: potency is the fitted concentration of half-maximal effect;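 for activity change % (negative = inhibition): cells stimulated with 0.4 nM T3 agonist during compound exposure; % is set by controls: 0 for no effect and ±100 for the full control effect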); details: TR-UAS-bla HEK293, beta-lactamase ratio, antagonist mode, 18 h
# Method in brief: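 TR-UAS-bla GripTite HEK293 cells in 2% charcoal/dextran FBS medium were preincubated 4 h at 37 C, given compound (0.59 nM to 92 uM) plus 0.4 nM T3 (final) for 18 h, then CCF4 for 2 h at RT; Hill fit gave IC50.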
# [18] = molecular target: Androgen receptor (Homo sapiens) (UniProt P10275); experiment: qHTS assay for small molecule agonists of androgen receptor signaling (AID 588515; active = well fitted curve in the direction sought with a large enough effect in the signal ratio, with a control signal flat; inconclusive = small, poorly fitted or top-dose-only effect, or effect the other way, or a change in a side signal; inactive = no such curve, though single readings can be large or run the other way; the % refers to the signal ratio; note: potency is the fitted concentration of half-maximal effect); details: AR-UAS-bla HEK293, beta-lactamase ratio, agonist 16 h; activation: stronger effect = higher value
# Method in brief: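 Stimulation of an AR-responsive β-lactamase reporter in GripTite HEK293 cells was measured after 16 h compound exposure at 37 °C, via CCF4 fluorescence after 2 h RT. EC50 from Hill fits, normalized to R1881 at 30 nM.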
# [19] = molecular target: Thyroid hormone receptor beta (Homo sapiens) (UniProt P10828); experiment: qHTS assay for small molecule agonists of thyroid hormone receptor beta signaling (AID 588545); details: TR-UAS-bla GripTite HEK 293, beta-lactamase ratio, agonist mode, 18 h; activation: at 76.7 µM, percent of T3 response, DMSO as zero
# Method in brief: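 In this cell-based screen, titrated compounds act on HEK 293 cells held in medium with 2% charcoal/dextran FBS, NEAA and pyruvate for 18 hrs at 37 C. Responses are expressed relative to T3 (10 nM) as 100% and basal DMSO as 0%.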
# [20] = qHTS assay for small molecule activators of the nuclear factor-kappa B (NF-kB) signaling pathway (AID 651749; active = well fitted activation curve with a large enough effect in the signal ratio; inconclusive = small, poorly fitted or top-dose-only effect, or a change in a side signal; the % refers to the signal ratio; note: % of control where 0% means no effect); details: NF-kB-bla ME-180 cells, beta-lactamase FRET ratio, 16 h; activation: stronger effect = higher value
# Method in brief: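 Human ME-180 cervical cells with an NF-kB-bla construct; compounds added via 23 nL pin transfer, DMSO as vehicle; incubation 16 hr. Reporter activity measured by FRET disruption.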
# [21] = qHTS assay for small molecule agonists of the antioxidant response element (ARE) signaling pathway measured by Nrf2-dependant transcriptional activity (AID 720636; active = well fitted curve in the direction sought with a large enough effect in the repeat runs; inconclusive = weak or mixed curves; inactive = no such curve, though single readings can be large; an effect the other way counts as inactive or inconclusive; note: potency is the fitted concentration of half-maximal effect)
# Method in brief: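 Cells: ARE-luc HepG2 with Nrf2-responsive luciferase. Medium contained 1% dialyzed FBS. Compound exposure lasted 16 hr at 37 C and 5% CO2, followed by ONE-Glo luciferase detection.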
# [22] = molecular target: Vitamin D3 receptor (Homo sapiens) (UniProt P11473); experiment: qHTS assay for small molecule agonists of vitamin D receptor signaling (AID 588543); details: HEK293T VDR-UAS-bla, beta-lactamase ratio, 16 h; activation: at 76.8 µM (top of the series);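 note: 0% = DMSO basal and 100% = reference agonist control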
# Method in brief: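 VDR-UAS-bla HEK293T cells, 2000/well, 2% charcoal-stripped FBS; compound titration 16 h at 37 C; CCF4 beta-lactamase ratio read. Normalized to 50 nM 1-alpha,25-dihydroxyvitamin D3 (100%) and DMSO; Hill fit gives EC50, efficacy.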
smiles,measurement,setting,value
c1ccc2scnc2c1,Potency,[1],"inconclusive: 20 µM [cytotoxic, partial curve, poor fit]"
same,Potency,[2],"inconclusive: 25.1 µM [cytotoxic, partial curve, poor fit]"
same,Potency,[3],inactive
same,Potency,[4],inactive
same,Potency,[5],inactive
same,Potency,[6],inactive
same,activation,[7],inconclusive: 6.52%
same,Potency,[8],inactive
CCCC/C=C\CCCCCCCCO,Potency,[3],inactive
same,Potency,[9],inactive
same,activation,[10],inactive: -5.44%
same,Potency,[11],"inconclusive: 28.2 µM [side channel, falling, single point]"
same,"activity change, negative = inhibition",[12],inconclusive: 11.7%
C=CCCCC,"activity change, negative = cytotoxic",[13],inactive: -1.64%
same,Potency,[14],inactive
same,Potency,[3],inactive
same,Potency,[11],"inconclusive: 0.282 µM [side channel, falling, full curve, poor fit]"
same,Potency,[7],inactive
same,Potency,[15],inactive
same,activation,[8],inconclusive: 6.25%
Cc1ccc(C(C)(C)C)c(O)c1,activation,[3],inconclusive: -3.39%
same,Potency,[16],inactive
same,Potency,[5],inactive
same,Potency,[6],inactive
same,Potency,[17],"inconclusive: 0.0018 µM [side channel, falling, full curve, poor fit]"
same,Potency,[7],inactive
CCOC(=O)COc1cc(-n2ncc(C(F)(F)F)c(C)c2=O)c(F)cc1Cl,activation,[3],inconclusive: 4.64%
same,"activity change, negative = inhibition",[9],inconclusive: 6.49%
same,"activity change, negative = inhibition",[12],inconclusive: 10.3%
same,Potency,[5],inactive
CCCCC(CC)COC(=O)c1ccc(C(=O)OCC(CC)CCCC)cc1 (configuration not stated),Potency,[18],"inconclusive: 15.8 µM [side channel, falling, partial curve, poor fit]"
same,activation,[10],inactive: 2.72%
same,activation,[19],inactive: 0%
same,activity change % (negative = inhibition),[17],inconclusive: -1.02%
same,Potency,[7],inactive
Oc1ccc2ccccc2c1N=Nc1ccccc1,activation,[3],inconclusive: 14.9%
same,"activity, negative = inhibition",[5],inconclusive: -3.09%
same,activation,[6],inconclusive: 48%
same,Potency,[17],"inconclusive: 0.0028 µM [side channel, falling, full curve, poor fit]"
same,activation,[20],inactive: 0.732%
same,Potency,[21],active: 9.69 µM
CCSC(=O)N(CC(C)C)CC(C)C,activation,[18],inactive: 3.31%
same,Potency,[9],inactive
same,"activity change, negative = inhibition",[12],inconclusive: 3.56%
same,"activity, negative = inhibition",[5],inconclusive: 7.78%
same,Potency,[22],inactive
same,Potency,[17],"inconclusive: 0.0063 µM [cytotoxic, side channel, full curve, poor fit]"
